Measurements reported in PubChem BioAssay AID504744 (Drosophila RNAi Screening Center, 2011)
The screen tested about 23,000 reagents; below is a random part of those that have a named target and a result. Over the whole deposit, 98 (0.43%) got an active call. 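Only hit calls are given; the phospho-dAkt signals, z-scores and hit direction were not deposited.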 Reagents against one gene are numbered here. A plus sign joins genes that one reagent is predicted to hit. No sequences are given here.

Purpose: 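Uncover factors, including feedback loops, that control dAkt activation in fly cells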 (primary screen)
Cells: Drosophila Kc167 cells
Reagents: long dsRNA against Drosophila genes, 250 ng dsRNA per well of a 384-well plate
Duration: 3 days of knock-down, then overnight serum-free starvation before stimulation
Treatment: bovine insulin at 387 nM for 10 minutes after 12 h without serum
Detection: 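Per-well phospho-dAkt level from an in-cell fluorescent antibody stain, divided by a DNA-dye signal; log2 residuals turned into z-scores that take cell number into account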
Active means: 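Hit in the insulin screen when the two-replicate mean z-score is more extreme than plus or minus 2.5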

Alg1 scored inactive. CG3568 showed inactive. Knock-down of Irk3 resulted in: inactive. With knock-down of MFS9, the screen gave inactive. Knock-down of Dcp-1 resulted in: inactive. Silencing of Nazo came out at: inactive.

With knock-down of CG4511, the screen gave inactive. ACXB gave inactive. Against Or94a, the values are inactive. Knock-down of CG33922 gave: inactive. v gave inactive. Against CG9920 the deposit lists inactive.

For CG16974, the entry reads inactive. For SrpRbeta, the values are inactive. With knock-down of CG31827 + CG18478 the results were inactive. With knock-down of CG32053, the record shows inactive. After knock-down of RhoGEF3 #1 the results were inactive. RhoGEF3 #2 gave inactive.

Knock-down of CG17744 gave: inactive. Mcad showed inactive. Depletion of CG14654 (retired record) resulted in: inactive. Silencing of daw gave: inactive. CYLD showed inactive. Knock-down of Fa2h #1 came out at: inactive.

Fa2h #2 gave inactive.

4 entries from above, reformatted:
predicted target | dsRNA no. | Call
CG32053 | 1 | inactive
RhoGEF3 | 1 | inactive
RhoGEF3 | 2 | inactive
CG17744 | 1 | inactive

Further entries follow:
ADD1 scored inactive. Knock-down of CG32437 #1 resulted in: inactive. CG32437 #2 gave inactive. arx scored inactive. With knock-down of Cyp4e1, the screen gave inactive. Against Ypel the deposit lists inactive.

With knock-down of CG30398, the record shows inactive. With knock-down of GstE2 the results were inactive. CG9890 gave inactive. After knock-down of CG13527, the screen gave inactive. With knock-down of TM9SF2 the results were inactive. After knock-down of Papss, the record shows inactive.

Against PHDP, the entry reads inactive. For CG10029, the entry reads inactive.
